Source: patent publication US8173771B2, “Humanin receptor or humanin-like polypeptide receptor” (Keio Univeristy, priority 2005, dated 2012)
No constants are given. Whether binding was seen depends on the method and setting. Binding seen in cells or lysates may run through a third protein. Some results given as binding are weak or reduced against the parent protein; the word gives no strength. Sequences can lack the tags named with a protein.

Protein sequences, listed by entry. Tags and fused reporters are not part of them. Residues count along the entry.
UniProt Q6UWB1, residues 33-636: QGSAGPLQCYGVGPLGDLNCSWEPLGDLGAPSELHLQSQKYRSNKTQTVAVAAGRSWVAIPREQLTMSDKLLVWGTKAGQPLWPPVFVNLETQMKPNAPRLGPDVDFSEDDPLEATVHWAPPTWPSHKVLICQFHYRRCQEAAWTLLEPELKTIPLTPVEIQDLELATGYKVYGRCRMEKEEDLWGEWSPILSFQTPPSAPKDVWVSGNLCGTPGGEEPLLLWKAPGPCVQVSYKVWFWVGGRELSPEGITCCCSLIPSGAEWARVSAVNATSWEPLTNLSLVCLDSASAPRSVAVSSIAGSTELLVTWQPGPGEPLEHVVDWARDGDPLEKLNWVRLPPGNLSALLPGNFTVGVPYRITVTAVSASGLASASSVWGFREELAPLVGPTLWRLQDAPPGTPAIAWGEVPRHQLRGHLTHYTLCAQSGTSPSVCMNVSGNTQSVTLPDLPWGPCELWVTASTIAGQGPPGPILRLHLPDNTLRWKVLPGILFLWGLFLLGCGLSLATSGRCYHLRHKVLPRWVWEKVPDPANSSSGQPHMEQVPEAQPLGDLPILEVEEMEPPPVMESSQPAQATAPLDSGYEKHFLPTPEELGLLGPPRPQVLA

Target: T1, C-terminally V5-tagged human CNTF-R (V5-CNTF-R) (human) (UniProt P26992)
T1 sequence (looked up): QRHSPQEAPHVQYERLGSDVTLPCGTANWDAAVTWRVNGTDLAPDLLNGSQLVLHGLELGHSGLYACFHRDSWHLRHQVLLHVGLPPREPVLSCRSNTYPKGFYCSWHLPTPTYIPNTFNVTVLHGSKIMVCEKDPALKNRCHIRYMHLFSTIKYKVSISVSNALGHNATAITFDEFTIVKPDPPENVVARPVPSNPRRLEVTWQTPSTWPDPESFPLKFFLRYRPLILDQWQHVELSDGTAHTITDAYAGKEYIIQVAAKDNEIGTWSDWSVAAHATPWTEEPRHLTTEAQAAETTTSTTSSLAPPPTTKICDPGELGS
Assay: reciprocal co-immunoprecipitation from transfected COS7 cells, immunoblot

binding: binds
Substance: C-terminally myc-tagged human WSX-1 (mycHis-WSX-1) (from UniProt Q6UWB1 33-636) (receptor)
